Among all 360,000 compounds or so, about 7,500 (2.1%) were called active. The inconclusive results got no clear call from the source; some entries with a clear call stand among them for comparison. Calls follow the shape of the dose curve; as a rule, active = well fitted inhibition curve with a large enough effect; inconclusive = small, poorly fitted or top-dose-only effect, or effect the other way; inactive = flat fitted curve, though single readings scatter. A potency beside an inconclusive call is a rough fit, not a confirmed value.
Assay: Nrf2 qHTS screen for inhibitors; also: nearly all actives have a fitted effect of over 60% in size
Settings: A549 ARE-Fluc reporter, luciferase luminescence, 18-24 h; series mostly up to 46 µM
Summary of the method: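 Reporter: ARE-Fluc in A549. Exposure: 18-24 h, 37 °C, 5% CO2, 5% FBS OPTI-MEM. Readouts: fluorescent cytotoxicity (CellTiter-Fluor), then luminescent Nrf2 signal after BugLite.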
Potency is read from the fitted curve at half-maximal effect.

Question: With `CC1=C(C(=O)Nc2ccccc2)C(c2ccc(C)cc2)N=C(Nc2nc3ccccc3o2)N1` (stereo not drawn) as the molecule, how does the Potency read?
Answer: inconclusive: 18.4 µM [falling, single point]

Question: For `COc1ccc(C2Nc3ccccc3C(=O)N2Cc2ccccc2)cc1OCc1ccc(NC(C)=O)cc1` (stereo not drawn), which Potency is on record?
Answer: inactive

Question: For `CNC(=S)N1N=C(c2ccc(Br)cc2)CC1c1ccc(Br)cc1` (stereo not drawn), which Potency is on record?
Answer: inconclusive: 14.6 µM [falling, partial curve, poor fit]

Question: For `COc1ccc(-c2cc(CCCC(=O)NCCc3ccccc3)no2)cc1`, which Potency is on record?
Answer: inconclusive: 4.11 µM [activator, partial curve]

Question: With `Cc1ccc(CN(Cc2cc3cc4c(cc3[nH]c2=O)OCCO4)Cc2nnnn2Cc2ccco2)cc1` as the molecule, how does the Potency read?
Answer: active: 25.9 µM

Question: Which Potency does the source give for `CC(=O)c1cccc(NS(=O)(=O)c2cc(-c3onc(C)c3C)ccc2C)c1` here?
Answer: active: 8.2 µM

Question: Which Potency does the source give for `Cc1cnc(C(=O)OCC(=O)Nc2ccc(OCc3ccccc3)cc2)cn1` here?
Answer: inconclusive: 5.17 µM [activator, partial curve]

Question: With `Cc1ccc(NC(=O)C(C)OC(=O)c2ccc(NS(=O)(=O)c3ccc(F)c(F)c3)cc2)cc1` (stereo not drawn) as the molecule, how does the Potency read?
Answer: inconclusive: 25.9 µM [falling, partial curve, poor fit]

Question: For `Cn1cc(CNCc2ccc(-n3cccn3)cc2)c(-c2ccccc2F)n1`, which Potency is on record?
Answer: inconclusive: 20.6 µM [falling, partial curve, poor fit]

Question: With `O=C(CSCc1ccc(Br)cc1)Nc1ccc(S(=O)(=O)N2CCCCCC2)cc1` as the molecule, how does the Potency read?
Answer: inconclusive: 23.1 µM [falling, single point]

Question: Which Potency does the source give for `C[C@]12c3[nH]c4ccc(Cl)cc4c3CCN1C(=O)[C@@H](CC(=O)NCc1cccc(C(F)(F)F)c1)C[C@@H]2C(=O)N1CCOCC1` here?
Answer: inconclusive: 16.4 µM [falling, single point]

Question: For `CN(Cc1ccccc1)S(=O)(=O)c1ccc(Cl)c(C(=O)NCc2ccncc2)c1`, which Potency is on record?
Answer: inconclusive: 13 µM [falling, partial curve, poor fit]

Question: With `Cc1cc(N/N=C/c2cccc(Br)c2)nc2ccccc12` as the molecule, how does the Potency read?
Answer: inconclusive: 14.6 µM [activator, partial curve]

Question: Which Potency does the source give for `CN(c1ccccc1)S(=O)(=O)c1cccc(NC(=O)CCNC(=O)c2ccc(Cl)cc2)c1` here?
Answer: inconclusive: 23.1 µM [falling, single point]

Question: For `O=C(/C=C/c1ccco1)c1cccnc1`, which Potency is on record?
Answer: inconclusive: 29.1 µM [falling, single point]

Question: With `CC1CCc2c(sc3nnn(CCCCOc4ccc(Cl)cc4)c(=O)c23)C1` (stereo not drawn) as the molecule, how does the Potency read?
Answer: inactive

Question: For `N#C/C(=C\c1ccc(Sc2ccc(Cl)cc2)o1)c1nc2ccccc2[nH]1`, which Potency is on record?
Answer: inconclusive: 29.1 µM [falling, single point]

Question: With `Cc1ccc(-c2noc(CN3CCC(C(N)=O)CC3)n2)cc1` as the molecule, how does the Potency read?
Answer: inconclusive: 8.2 µM [activator, partial curve]

Question: With `O=C(N/N=C\c1ccc([N+](=O)[O-])s1)C1COc2ccccc2O1` (stereo not drawn) as the molecule, how does the Potency read?
Answer: inconclusive: 29.1 µM [falling, single point]

Question: Which Potency does the source give for `CCN(CC)CCNC(=O)C(=O)NCC(c1cccnc1)N1CCN(c2ccc(F)cc2)CC1` (stereo not drawn) here?
Answer: inactive

Question: For `O=C(Nc1ccccc1C(F)(F)F)c1cc(-c2ccc3c(c2)OCCO3)on1`, which Potency is on record?
Answer: inconclusive: 4.11 µM [activator, full curve]

Question: Which Potency does the source give for `Cc1ccc(OCCn2c(C)nc3ccccc32)cc1` here?
Answer: inconclusive: 29.1 µM [falling, single point]

Question: With `CCN(c1ccccc1)S(=O)(=O)c1nnc(NC(=O)c2ccccc2)s1` as the molecule, how does the Potency read?
Answer: inconclusive: 6.51 µM [falling, single point]

Question: For `O=C(Nc1ccccc1)C1=C[C@H](C2CCCCC2)C[C@H](OCCCCO)O1`, which Potency is on record?
Answer: inconclusive: 29.1 µM [activator, single point]

Question: For `O=c1onc(-c2cccnc2)n1-c1ccccc1F`, which Potency is on record?
Answer: inactive

Question: For `O=C(Nc1ccccc1)N(Cc1c[nH]c2ccccc12)C1CCCCCC1`, which Potency is on record?
Answer: inconclusive: 6.51 µM [activator, full curve, poor fit]

Question: Which Potency does the source give for `Cc1cccc(C)c1OCc1cc(C(=O)N(C)Cc2nc3ccccc3[nH]2)no1` here?
Answer: inconclusive: 29.1 µM [falling, single point]

Question: For `COc1cccc2cc(/C(=N/O)c3ccc(Br)cc3)oc12`, which Potency is on record?
Answer: inconclusive: 29.1 µM [falling, single point]

Question: With `COc1ccc(S(=O)(=O)N2CCN(c3nc(-c4cccnc4)nc4ccccc34)CC2)cc1` as the molecule, how does the Potency read?
Answer: inconclusive: 32.6 µM [falling, partial curve, poor fit]

Question: For `Cc1ccc(-n2nc3ccc(N)cc3n2)cc1`, which Potency is on record?
Answer: inconclusive: 1.16 µM [activator, partial curve, poor fit]

Question: With `CC1CCN(S(=O)(=O)c2cc(C(=O)NC3(C)CCS(=O)(=O)C3)ccc2Br)CC1` (stereo not drawn) as the molecule, how does the Potency read?
Answer: inconclusive: 20.6 µM [falling, single point]

Question: With `C=CCN1C(c2ccccc2)=CS/C1=C(\C#N)c1nnc2n1CCCCC2` as the molecule, how does the Potency read?
Answer: inactive

Question: With `CCC1(C)Cc2c(sc3nnn(CC(=O)Nc4ccc(Cl)cc4)c(=O)c23)CO1` (stereo not drawn) as the molecule, how does the Potency read?
Answer: inconclusive: 29.1 µM [falling, single point]

Question: Which Potency does the source give for `COc1ccc(N(CC(C)C)S(=O)(=O)c2nnc(NC(=O)c3cccs3)s2)cc1` here?
Answer: active: 20.6 µM

Question: With `Cc1ccnc(NC(=O)C2COc3ccccc3O2)c1` (stereo not drawn) as the molecule, how does the Potency read?
Answer: inconclusive: 5.8 µM [activator, partial curve]

Question: For `COc1cc(NC(=O)COc2cccc(C)c2C)ccc1NC(=O)c1ccco1`, which Potency is on record?
Answer: inconclusive: 18.4 µM [falling, partial curve, poor fit]

Question: Which Potency does the source give for `Cc1occc1C(=O)N/N=C/c1cccc2ccccc12` here?
Answer: inconclusive: 8.2 µM [activator, partial curve]

Question: Which Potency does the source give for `COc1cc(NC(=O)c2cccs2)c(C(=O)OCC(=O)c2cc(C)n(-c3ccccc3)c2C)cc1OC` here?
Answer: inconclusive: 13 µM [falling, partial curve, poor fit]

Question: For `C=CCNC(=O)c1onc(CSc2cccc(Cl)c2)c1C(=O)O`, which Potency is on record?
Answer: inconclusive: 29.1 µM [activator, single point]

Question: For `CCn1c(SCC(=O)Nc2cc(OC)ccc2OC)nc2c(c1=O)SCC2`, which Potency is on record?
Answer: inconclusive: 1.84 µM [falling, partial curve, poor fit]

Question: For `C=CCn1c(SCC2CCCCO2)nc2sc(CC)cc2c1=O` (stereo not drawn), which Potency is on record?
Answer: inconclusive: 29.1 µM [falling, single point]

Question: With `C=CCn1c(=O)/c(=C/c2cc(OC)c(OC)c(OC)c2)s/c1=C(/C#N)c1nc2ccccc2n1C` as the molecule, how does the Potency read?
Answer: inconclusive: 29.1 µM [falling, single point]

Question: For `COc1cccc(-c2nnc(SCC(=O)Nc3cc(C)on3)n2C)c1`, which Potency is on record?
Answer: inconclusive: 0.206 µM [falling, partial curve, poor fit]

Question: With `O=C1CCC(=O)N1CC(=O)N(c1ccccc1)c1ccccc1` as the molecule, how does the Potency read?
Answer: inconclusive: 29.1 µM [activator, single point]

Question: For `CC(=O)N(C(C)=O)c1ncnc2c1c(-c1ccc(Cl)cc1)nn2C(C)(C)C`, which Potency is on record?
Answer: inconclusive: 23.1 µM [falling, single point]

Question: For `CCn1nnnc1SCC(=O)Nc1ccc(OC)cc1`, which Potency is on record?
Answer: inconclusive: 25.9 µM [activator, single point]

Question: With `COc1cc(C(=S)N2CCOCC2)cc(OC)c1OS(=O)(=O)c1ccc(Cl)cc1` as the molecule, how does the Potency read?
Answer: inconclusive: 7.31 µM [falling, full curve, poor fit]

Question: For `COc1nc(Nc2ccc(OC)c(Cl)c2)nc(OC)n1`, which Potency is on record?
Answer: inactive

Question: With `CN1CCN(S(=O)(=O)c2csc(C(N)=O)c2)CC1` as the molecule, how does the Potency read?
Answer: inactive

Question: For `O=C(c1ccc2ncsc2c1)N1CCCCC1`, which Potency is on record?
Answer: inactive

Question: For `COc1ccc(CSc2nnc(C)s2)cc1F`, which Potency is on record?
Answer: inconclusive: 2.91 µM [activator, full curve]

Question: With `Cc1ccccc1NS(=O)(=O)c1cc(C(=O)NCCSC2CCCCC2)ccc1C` as the molecule, how does the Potency read?
Answer: inconclusive: 20.6 µM [falling, single point]

Question: Which Potency does the source give for `O=C(CSc1nnc2scc(-c3ccccc3)n12)N1CCCc2ccccc21` here?
Answer: inconclusive: 6.51 µM [falling, single point]

Question: With `O=S(=O)(c1ccc(-c2cc(C(F)(F)F)on2)s1)N1CCN(c2ccccc2)CC1` as the molecule, how does the Potency read?
Answer: inconclusive: 29.1 µM [activator, single point]

Question: Which Potency does the source give for `O=C1CC(=O)N(CCc2ccccc2)C(=O)N1CCc1ccccc1` here?
Answer: inconclusive: 23.1 µM [falling, partial curve, poor fit]

Question: Which Potency does the source give for `Cc1ccnc(NC(=O)CS(=O)(=O)c2ccccc2)c1` here?
Answer: inconclusive: 29.1 µM [activator, single point]

Question: For `Cc1cccc(N2C(=O)C(O)=C(C(=O)c3cccs3)C2c2ccccc2)n1` (stereo not drawn), which Potency is on record?
Answer: inconclusive: 7.31 µM [falling, partial curve, poor fit]

Question: For `C/C(=N\NC(N)=S)c1ccc(Cl)s1`, which Potency is on record?
Answer: inconclusive: 7.31 µM [falling, partial curve, poor fit]

Question: Which Potency does the source give for `CN(CC(=O)Nc1ccc(F)cc1)C(=O)COC(=O)C1CCN(c2ccc(C(F)(F)F)cn2)CC1` here?
Answer: inconclusive: 20.6 µM [activator, single point]

Question: Which Potency does the source give for `O=C(CSc1nnnn1C1CCCC1)N1CCCCC1` here?
Answer: inconclusive: 18.4 µM [activator, partial curve]

Question: Which Potency does the source give for `Cc1ccccc1-c1nc(CS(=O)(=O)CC(=O)NCCc2ccccc2)c(C)o1` here?
Answer: inconclusive: 20.6 µM [falling, single point]

Question: With `O=C(Nc1nccs1)c1ccc(-c2ccc(F)c(Cl)c2)o1` as the molecule, how does the Potency read?
Answer: inconclusive: 18.4 µM [activator, single point]

Question: For `CCC(=O)NC(=S)Nc1ccc(-c2nc3ccc(C)cc3s2)cc1`, which Potency is on record?
Answer: inconclusive: 0.116 µM [activator, full curve, poor fit]
